From patent US6361968
No constants are given. Whether binding was seen depends on the method and setting. Some binding calls cover weakened binding; strength is not graded here.

B1: 3heptad-F (designed binder)
chain: ASMTGGQQMGRDPGGGLARENEELEKEAEELEQENAELEQEVLELESRNDRLRKEVEQLERELDTLRGIFRQLPESSLVKAMGNCA
B2: 0heptad-F (F zipper with the basic region deleted) (designed binder)
chain: ASMTGGQQMGRDPGGGTQQEVLELESRNDRLRKEVEQLERELDTLRGIFRQLPESSLVKAMGNCA
B3: 1heptad-F (designed binder)
chain: ASMTGGQQMGRDPGGGLEQENAELEQEVLELESRNDRLRKEVEQLERELDTLRGIFRQLPESSLVKAMGNCA
B4: 2heptad-F (designed binder)
chain: ASMTGGQQMGRDPGGGLEKEAEELEQENAELEQEVLELESRNDRLRKEVEQLERELDTLRGIFRQLPESSLVKAMGNCA
B5: 4heptad-F (designed binder)
chain: ASMTGGQQMGRDPGGGLEQRAEELARENEELEKEAEELEQENAELEQEVLELESRNDRLRKEVEQLERELDTLRGIFRQLPESSLVKAMGNCA
B6: 3heptad-F (cap) (designed binder)
chain: ASMTGGQQMGRDPGGGLARNNIAVRKSRDKAKQRNVELEQEVLELESRNDRLRKEVEQLERELDTLRGIFRQLPESSLVKAMGNCA
B7: 3heptad-F (cap, a d) (designed binder)
chain: ASMTGGQQMGRDPGGGLARNNIALRKSADKLKQRNVELEQEVLELESRNDRLRKEVEQLERELDTLRGIFRQLPESSLVKAMGNCA
B8: 3heptad-F (cap, e g) (designed binder)
chain: ASMTGGQQMGRDPGGGLARENIAVEKERDKAEQENVELEQEVLELESRNDRLRKEVEQLERELDTLRGIFRQLPESSLVKAMGNCA
B9: 3heptad-F (cap, b d) (designed binder)
chain: ASMTGGQQMGRDPGGGLARNNEEVRKSREEAKQRNAELEQEVLELESRNDRLRKEVEQLERELDTLRGIFRQLPESSLVKAMGNCA

Tests used:
[1] = molecular target: C/EBP bZIP domain (GCN4-C/EBP chimeric protein) (C/EBP: rat liver; GCN4: yeast); test: summary of thermal stability and competition assays
[2] = molecular target: C/EBP bZIP domain (GCN4-C/EBP chimeric protein) (C/EBP: rat liver; GCN4: yeast); test: sedimentation equilibrium, equimolar mixture
[3] = molecular target: C/EBP bZIP domain (GCN4-C/EBP chimeric protein) (C/EBP: rat liver; GCN4: yeast); test: CD thermal melts
[4] = molecular target: C/EBP bZIP domain (GCN4-C/EBP chimeric protein) (C/EBP: rat liver; GCN4: yeast); test: CD thermal melting curves at 222 nm (FIG. 13B)
[5] = molecular target: C/EBP bZIP domain (GCN4-C/EBP chimeric protein) (C/EBP: rat liver; GCN4: yeast); test: heterodimer stability of four mutant proteins

Binder	binding [1]	binding [2]	binding [3]	binding [4]	binding [5]
B1	binds	binds	binds	binds	–
B2	–	–	binds	binds	–
B3	–	–	binds	binds	–
B4	–	–	binds	binds	–
B5	–	–	binds	binds	–
B6	–	–	–	–	binds
B7	–	–	–	–	binds
B8	–	–	–	–	binds
B9	–	–	–	–	binds
